Experiment: In-mouth release from spiked chocolate during chewing, PTR-MS of nose space
Conditions: spiked chocolate 2 g, test person; FIG. 5

Row | SMILES | ion m/z 87 in nose space during chewing of spiked chocolate (PTR-MS)
1 | CCC(C)C=O (centres unmarked) [2-methylbutanal] | clear increase
2 | CC(C)CC=O [3-methylbutanal] | clear increase

Reference: patent US20150044346A1, “USE OF OXAZOLINES AS AROMA/FLAVOUR PRECURSORS” (NESTEC S.A., priority 2012, published 2015)
